Literature values in patent US5968737A, “Method of identifying inhibitors of glutathione S-transferase (GST) gene expression” (The University of Mississippi, priority 1996, dated 1999).
The name of at least one read-out is uncertain.

Amino acid sequences for entries named in this document (tags omitted). A change or cut given only in a name is not applied to a line headed by its entry. Residues count along the entry.
UniProt P09211, 2-210 limits assumed: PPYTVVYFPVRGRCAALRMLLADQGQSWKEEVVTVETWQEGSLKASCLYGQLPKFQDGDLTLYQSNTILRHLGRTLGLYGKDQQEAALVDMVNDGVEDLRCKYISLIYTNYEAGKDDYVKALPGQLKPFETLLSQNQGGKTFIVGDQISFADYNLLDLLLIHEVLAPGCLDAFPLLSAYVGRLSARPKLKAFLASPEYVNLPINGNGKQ

Molecular target: T1, human GST-π GSTP1a-1a, recombinant, encoded by hGSTP1*A (Ile104, Ala113; SEQ ID NO:3 and SEQ ID NO:4) (Homo sapiens, UniProt P09211)
T1 construct: made in house; host or cells: E. coli (XL1 Blue, pBK-CMV vector)
Details: previous study (Zimniak et al., 1994), GSTP1b-1b made by site-directed mutagenesis; cited from earlier work

O=[N+]([O-])c1ccc(Cl)c([N+](=O)[O-])c1 [CDNB, 1-chloro-2,4-dinitrobenzene]
Km value for CDNB, fold lower for recombinant GSTP1a-1a relative to GSTP1b-1b: 4 fold
